Test results as given in patent publication US9204651B2, “N-substituted hetero-bicyclic compounds and derivatives for combating animal pests” (BASF SE, priority 2011, dated 2015).
Some of these results come from one statement about several compounds together.

Columns and labels:
Format in all cases: in vivo
[1] = test system: Orchid Thrips (Dichromothrips corbetti); assay: Orchid thrips floral-immersion test; conditions: 500 ppm; orchid flowers dipped; adult thrips; after 4 days
[2] = test system: Cowpea Aphid (Aphis craccivora); assay: Cowpea aphid spray test on potted cowpea plants; conditions: 500 ppm; sprayed cowpea plants; assessed after 24, 72, and 120 hours
[3] = test system: Rice Green Leafhopper (Nephotettix virescens); assay: Rice green leafhopper spray test on rice seedlings; conditions: 500 ppm; sprayed rice seedlings; adults; after 72 hours
[4] = test system: Silverleaf Whitefly (Bemisia Argentifolii); assay: Silverleaf whitefly spray test on cotton plants; conditions: 500 ppm; sprayed cotton plants; adults; 3 days after treatment
[5] = test system: Rice Brown Plant Hopper (Nilaparvata lugens); assay: Rice brown plant hopper spray test on rice seedlings; conditions: 500 ppm; sprayed rice seedlings; adults; after 72 hours
[6] = test system: Boll Weevil (Anthonomus grandis); assay: Boll weevil insect diet microtiter test; conditions: 2500 ppm, egg and larval mortality, 5 days
[7] = test system: Cotton Aphid (Aphis gossypii); assay: Cotton aphid cotyledon dip test; conditions: 300 ppm; cotton cotyledons dipped; after 5 days
[8] = test system: Mediterranean Fruitfly (Ceratitis capitata); assay: Mediterranean fruitfly insect diet microtiter test; conditions: 800 ppm, egg and larval mortality, 5 days
[9] = test system: Vetch Aphid (Megoura viciae); assay: Vetch aphid broad bean leaf disk microtiter test; conditions: 800 ppm; broad bean leaf disks; 5 days
[10] = test system: Green Peach Aphid (Myzus persicae); assay: Green peach aphid spray test on bell pepper plants; conditions: 300 ppm; sprayed bell pepper plants; after 5 days

Measured: mortality in comparison with untreated controls

O=c1nc2n(o1)CCCN2Cc1ccc(Cl)nc1 [Compound E2.9]
at least 75%: [1] | [2] | [3] | [4] | [5] | [7] | [9] | [10]
over 75%: [6] | [8]

O=c1nc2n(Cc3ccc(F)nc3)cccc-2o1 [Compound E1.1]
over 75%: [6] | [8]
at least 75%: [1] | [2] | [3] | [4] | [7] | [9] | [10]

Fc1cc(Cn2cccc3sc(=S)nc2-3)cnc1Cl [Compound E1.42]
over 75%: [6] | [8]
at least 75%: [1] | [2] | [3] | [4] | [5] | [7] | [9]

O=c1nc2n(Cc3cnc(Br)s3)cccc-2o1 [Compound E1.10]
at least 75%: [1] | [2] | [9]
over 75%: [6] | [8]

O=c1nc2n(Cc3ccc(Br)nc3)cccc-2o1 [Compound E1.3]
over 75%: [8]
at least 75%: [1] | [2] | [3] | [4] | [5] | [7] | [9] | [10]

O=c1nc2n(Cc3cnc(Cl)s3)cccc-2o1 [Compound E1.6]
at least 75%: [1] | [2] | [3] | [7] | [9] | [10]
over 75%: [6] | [8]

O=c1nc2n(o1)CCCN2Cc1cnc(Cl)s1 [Compound E2.10]
over 75%: [6] | [8]
at least 75%: [1] | [2] | [3] | [4] | [7] | [9] | [10]

S=c1nc2n(o1)CCCN2Cc1cnc(Cl)c(Cl)c1 [Compound E2.15]
at least 75%: [2] | [4] | [9] | [10]
over 75%: [6] | [8]

S=c1nc2n(Cc3cnc(Cl)s3)cccc-2o1 [Compound E1.24]
over 75%: [6] | [8]
at least 75%: [1] | [2] | [3] | [4] | [5] | [7] | [9] | [10]

S=c1nc2n(o1)CCCN2Cc1ccc(Cl)nc1 [Compound E2.11]
at least 75%: [1] | [2] | [3] | [4] | [5] | [7] | [9] | [10]
over 75%: [6] | [8]

Fc1ccc(Cn2cccc3oc(=S)nc2-3)cn1 [Compound E1.30]
at least 75%: [1] | [2] | [3] | [4] | [5] | [7] | [9] | [10]
over 75%: [6] | [8]

S=c1nc2n(Cc3ccc(Br)nc3)cccc-2o1 [Compound E1.31]
over 75%: [6] | [8]
at least 75%: [1] | [2] | [3] | [4] | [5] | [7] | [9] | [10]

O=c1nc2n(Cc3ccc(Cl)nc3)cc(Br)cc-2o1 [Compound E1.23]
at least 75%: [2] | [9]
over 75%: [8]
